Laboratory results from publication PMC6083498, “F-CphI represents a new homing endonuclease family using the Endo VII catalytic motif”.

Columns and labels:
[1] = target: T1, F-CphI D101N (cyanophage S-PM2) (UniProt Q7Y4H4); assay: competition with a labelled probe; conditions: 200 nM protein, 2 nM labeled N1, competitor 0-20 nM; EMSA: 10 mM Tris-HCl pH 8.0, 2% glycerol, 2 ug/ml poly-dIdC, 2 ug/ml BSA, 0.2 mM DTT, on ice 15 min, 2 nM labeled DNA; 8% native PAGE in 1X TBE; recombinant protein; protein details: C-terminal Myc-His; label: unlabeled
T1 sequence (looked up, limits assumed): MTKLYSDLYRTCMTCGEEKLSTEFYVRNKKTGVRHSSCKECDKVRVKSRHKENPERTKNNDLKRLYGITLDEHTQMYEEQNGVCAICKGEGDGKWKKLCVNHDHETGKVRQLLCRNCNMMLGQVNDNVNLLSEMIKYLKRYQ

[2] = target: T2, F-CphI H102T (cyanophage S-PM2) (UniProt Q7Y4H4); assay: competition with a labelled probe; conditions: 200 nM protein, 2 nM labeled N1, competitor 0-20 nM; EMSA: 10 mM Tris-HCl pH 8.0, 2% glycerol, 2 ug/ml poly-dIdC, 2 ug/ml BSA, 0.2 mM DTT, on ice 15 min, 2 nM labeled DNA; 8% native PAGE in 1X TBE; recombinant protein; protein details: C-terminal Myc-His; label: unlabeled
T2 sequence (looked up, limits assumed): T1 sequence (looked up, limits assumed) with N101D, H102T

[3] = target: T1, F-CphI D101N (cyanophage S-PM2); assay: EMSA; conditions: no Mg2+ added, Kd higher than wild type, value only in figure; EMSA: 10 mM Tris-HCl pH 8.0, 2% glycerol, 2 ug/ml poly-dIdC, 2 ug/ml BSA, 0.2 mM DTT, on ice 15 min, 2 nM labeled DNA; 8% native PAGE in 1X TBE; recombinant protein; protein details: C-terminal Myc-His; label: 5'-32P on top strand
[4] = target: T3, F-CphI N118A (cyanophage S-PM2) (UniProt Q7Y4H4); assay: EMSA; conditions: no Mg2+ added; EMSA: 10 mM Tris-HCl pH 8.0, 2% glycerol, 2 ug/ml poly-dIdC, 2 ug/ml BSA, 0.2 mM DTT, on ice 15 min, 2 nM labeled DNA; 8% native PAGE in 1X TBE; recombinant protein; protein details: C-terminal Myc-His; label: 5'-32P on top strand
T3 sequence (looked up, limits assumed): T1 sequence (looked up, limits assumed) with N101D, N118A

[5] = target: T2, F-CphI H102T (cyanophage S-PM2); assay: EMSA; conditions: no Mg2+ added, Kd higher than wild type, value only in figure; EMSA: 10 mM Tris-HCl pH 8.0, 2% glycerol, 2 ug/ml poly-dIdC, 2 ug/ml BSA, 0.2 mM DTT, on ice 15 min, 2 nM labeled DNA; 8% native PAGE in 1X TBE; recombinant protein; protein details: C-terminal Myc-His; label: 5'-32P on top strand
[6] = target: T4, F-CphI R110A (cyanophage S-PM2) (UniProt Q7Y4H4); assay: EMSA; conditions: no Mg2+ added; EMSA: 10 mM Tris-HCl pH 8.0, 2% glycerol, 2 ug/ml poly-dIdC, 2 ug/ml BSA, 0.2 mM DTT, on ice 15 min, 2 nM labeled DNA; 8% native PAGE in 1X TBE; recombinant protein; protein details: C-terminal Myc-His; label: 5'-32P on top strand
T4 sequence (looked up, limits assumed): T1 sequence (looked up, limits assumed) with N101D, R110A

[7] = target: T5, F-CphI R110T (cyanophage S-PM2) (UniProt Q7Y4H4); assay: EMSA; conditions: no Mg2+ added; EMSA: 10 mM Tris-HCl pH 8.0, 2% glycerol, 2 ug/ml poly-dIdC, 2 ug/ml BSA, 0.2 mM DTT, on ice 15 min, 2 nM labeled DNA; 8% native PAGE in 1X TBE; recombinant protein; protein details: C-terminal Myc-His; label: 5'-32P on top strand
T5 sequence (looked up, limits assumed): T1 sequence (looked up, limits assumed) with N101D, R110T

| Sequence | binding result [1] | binding result [2] | binding result [3] | binding result [4] | binding result [5] | binding result [6] | binding result [7] |
| --- | --- | --- | --- | --- | --- | --- | --- |
| TAGACGGATGAATATTGAGGACAGAAGTTGGATTTGGTAGT (double strand) [endoV41A duplex] | no binding | no binding | – | – | – | – | – |
| TGGTCTGGGTATGGAAGTGATGCACGAGCGCAACGCTCACAACTTCCCTCTCGACCTTGC (double strand) [SBM4-60Top duplex] | – | – | binds more weakly | no binding | binds more weakly | no binding | no binding |

Substitutions are numbered along the chain they refer to. For at least one entry, the source does not settle the construct or the ends of the probe. For some of these results: No signal at the amounts used counts as a negative. For some of these results: At least one verdict rests on a figure or table, not on a statement of the authors. Tags and fusion partners may be left off the protein sequences shown. For some of these results: A weaker result is weaker than the reference pair of the same experiment.
